Source: PubChem BioAssay AID1259308 (NCATS, 2017)

Test: 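Knock-downs that increase output of a recombinant reporter protein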 (primary screen)
System: human HEK293 embryonic kidney cells stably expressing firefly luciferase (HEK-CMV-Luc2-Hygro)
Knock-down reagent: single siRNA against human genes, 0.8 pmol siRNA per well
Timing: 72 h
Measurement: 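Reporter luminescence and viable-cell signal on separate replicate plates, given as percent of non-targeting control and median/MAD z-scores, plus per-cell luciferase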
Direction: total luciferase, z-score and total luciferase, % of control: higher = more reporter protein produced
Call rule: 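Active when the median/MAD z-score for overall luciferase is greater than 3; a gene was taken forward for validation with new siRNAs if at least two of its three siRNAs passed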
Calls: active = raised luciferase; inactive = no rise
Shown is one part, drawn at random, of about 59,000 deposited reagents. Over the whole deposit, about 1,510 (2.6%) got an active call. 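Calls use total luciferase alone and ignore viability, so some active siRNAs may act by altering cell number.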 Reagents against one gene are numbered here. Further read-outs or replicates are left out here. No sequences are given here.

PRR16 #1 | total luciferase, z-score: -0.112; total luciferase, % of control: 79.7; activity call: inactive
PRR16 #2 | total luciferase, z-score: -0.207; total luciferase, % of control: 77.8; activity call: inactive
PRR16 #3 | total luciferase, z-score: 3.56; total luciferase, % of control: 153; activity call: active
ALG6 #1 | total luciferase, z-score: -0.562; total luciferase, % of control: 70.7; activity call: inactive
ALG6 #2 | total luciferase, z-score: 0.572; total luciferase, % of control: 93.3; activity call: inactive
ALG6 #3 | total luciferase, z-score: 0.551; total luciferase, % of control: 92.8; activity call: inactive
LEKR1 #1 | total luciferase, z-score: 0.0708; total luciferase, % of control: 83.3; activity call: inactive
LEKR1 #2 | total luciferase, z-score: -1.37; total luciferase, % of control: 54.7; activity call: inactive
LEKR1 #3 | total luciferase, z-score: 1.59; total luciferase, % of control: 113; activity call: inactive
SULT1A1 #1 | total luciferase, z-score: 0.342; total luciferase, % of control: 88.7; activity call: inactive
SULT1A1 #2 | total luciferase, z-score: 0.623; total luciferase, % of control: 94.3; activity call: inactive
SULT1A1 #3 | total luciferase, z-score: 4.76; total luciferase, % of control: 177; activity call: active

Called active, of those listed so far:
PRR16 #3 | total luciferase, z-score: 3.56; total luciferase, % of control: 153; activity call: active
SULT1A1 #3 | total luciferase, z-score: 4.76; total luciferase, % of control: 177; activity call: active
